Publication doi:10.1101/2025.01.05.631347

The chains behind the UniProt entries cited, without tags or fusion partners.
UniProt P22561: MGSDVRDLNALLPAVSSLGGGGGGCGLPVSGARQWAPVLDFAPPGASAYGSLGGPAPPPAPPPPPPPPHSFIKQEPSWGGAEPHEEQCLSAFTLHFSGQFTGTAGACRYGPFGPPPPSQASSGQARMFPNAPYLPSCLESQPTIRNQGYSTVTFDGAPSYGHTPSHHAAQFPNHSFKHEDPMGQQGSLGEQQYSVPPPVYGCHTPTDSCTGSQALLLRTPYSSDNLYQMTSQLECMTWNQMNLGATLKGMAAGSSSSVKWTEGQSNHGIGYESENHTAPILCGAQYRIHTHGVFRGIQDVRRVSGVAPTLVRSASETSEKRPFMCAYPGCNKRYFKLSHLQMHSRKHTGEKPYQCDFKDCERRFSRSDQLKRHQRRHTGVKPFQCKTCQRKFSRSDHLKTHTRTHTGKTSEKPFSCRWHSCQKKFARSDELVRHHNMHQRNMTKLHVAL
UniProt O70133: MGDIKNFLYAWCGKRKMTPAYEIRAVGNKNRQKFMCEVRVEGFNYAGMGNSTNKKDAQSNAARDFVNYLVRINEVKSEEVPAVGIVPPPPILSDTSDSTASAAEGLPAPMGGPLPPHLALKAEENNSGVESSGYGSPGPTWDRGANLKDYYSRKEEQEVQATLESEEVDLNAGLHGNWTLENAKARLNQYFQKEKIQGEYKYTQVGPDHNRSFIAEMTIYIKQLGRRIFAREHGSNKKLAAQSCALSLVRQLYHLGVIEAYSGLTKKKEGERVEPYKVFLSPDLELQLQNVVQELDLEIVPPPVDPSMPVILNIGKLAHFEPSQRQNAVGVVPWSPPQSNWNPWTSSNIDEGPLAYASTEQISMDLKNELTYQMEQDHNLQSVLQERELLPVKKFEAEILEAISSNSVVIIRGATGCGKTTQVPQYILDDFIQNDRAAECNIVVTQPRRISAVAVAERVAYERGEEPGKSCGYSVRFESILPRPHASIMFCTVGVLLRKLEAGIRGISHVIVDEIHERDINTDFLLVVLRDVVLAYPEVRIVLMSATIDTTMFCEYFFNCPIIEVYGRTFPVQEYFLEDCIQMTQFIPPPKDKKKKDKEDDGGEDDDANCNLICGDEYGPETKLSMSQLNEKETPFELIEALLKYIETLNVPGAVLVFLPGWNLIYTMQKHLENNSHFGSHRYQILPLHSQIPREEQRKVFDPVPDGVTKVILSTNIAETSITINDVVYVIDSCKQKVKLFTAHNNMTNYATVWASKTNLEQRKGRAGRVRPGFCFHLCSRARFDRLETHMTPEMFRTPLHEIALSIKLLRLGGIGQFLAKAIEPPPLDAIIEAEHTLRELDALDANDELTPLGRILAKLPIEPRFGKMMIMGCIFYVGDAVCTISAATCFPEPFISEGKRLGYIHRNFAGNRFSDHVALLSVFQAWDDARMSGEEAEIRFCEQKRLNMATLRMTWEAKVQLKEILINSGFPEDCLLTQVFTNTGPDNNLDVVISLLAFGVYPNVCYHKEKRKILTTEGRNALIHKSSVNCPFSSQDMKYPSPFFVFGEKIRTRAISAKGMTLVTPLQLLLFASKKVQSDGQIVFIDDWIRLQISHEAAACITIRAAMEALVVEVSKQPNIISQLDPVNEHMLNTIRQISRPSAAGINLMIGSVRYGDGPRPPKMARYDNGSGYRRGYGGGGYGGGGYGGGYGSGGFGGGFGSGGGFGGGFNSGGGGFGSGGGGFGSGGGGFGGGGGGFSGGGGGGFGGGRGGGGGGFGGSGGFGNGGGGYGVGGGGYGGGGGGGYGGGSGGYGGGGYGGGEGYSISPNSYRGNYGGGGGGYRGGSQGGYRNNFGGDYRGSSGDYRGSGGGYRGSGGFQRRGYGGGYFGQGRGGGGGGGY
UniProt P26369: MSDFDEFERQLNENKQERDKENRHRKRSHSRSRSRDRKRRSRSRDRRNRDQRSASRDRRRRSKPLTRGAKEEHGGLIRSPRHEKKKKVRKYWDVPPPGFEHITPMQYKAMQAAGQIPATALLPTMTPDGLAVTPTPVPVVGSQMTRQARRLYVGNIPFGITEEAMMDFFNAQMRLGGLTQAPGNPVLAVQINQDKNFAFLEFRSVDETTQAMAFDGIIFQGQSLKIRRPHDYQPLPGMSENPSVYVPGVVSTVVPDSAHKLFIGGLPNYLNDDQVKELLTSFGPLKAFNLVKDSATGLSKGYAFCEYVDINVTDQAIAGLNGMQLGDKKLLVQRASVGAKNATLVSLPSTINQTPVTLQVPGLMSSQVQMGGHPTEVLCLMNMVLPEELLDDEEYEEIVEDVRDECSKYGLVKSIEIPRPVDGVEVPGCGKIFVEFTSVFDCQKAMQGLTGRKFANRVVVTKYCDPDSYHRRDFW
UniProt Q8CJG0: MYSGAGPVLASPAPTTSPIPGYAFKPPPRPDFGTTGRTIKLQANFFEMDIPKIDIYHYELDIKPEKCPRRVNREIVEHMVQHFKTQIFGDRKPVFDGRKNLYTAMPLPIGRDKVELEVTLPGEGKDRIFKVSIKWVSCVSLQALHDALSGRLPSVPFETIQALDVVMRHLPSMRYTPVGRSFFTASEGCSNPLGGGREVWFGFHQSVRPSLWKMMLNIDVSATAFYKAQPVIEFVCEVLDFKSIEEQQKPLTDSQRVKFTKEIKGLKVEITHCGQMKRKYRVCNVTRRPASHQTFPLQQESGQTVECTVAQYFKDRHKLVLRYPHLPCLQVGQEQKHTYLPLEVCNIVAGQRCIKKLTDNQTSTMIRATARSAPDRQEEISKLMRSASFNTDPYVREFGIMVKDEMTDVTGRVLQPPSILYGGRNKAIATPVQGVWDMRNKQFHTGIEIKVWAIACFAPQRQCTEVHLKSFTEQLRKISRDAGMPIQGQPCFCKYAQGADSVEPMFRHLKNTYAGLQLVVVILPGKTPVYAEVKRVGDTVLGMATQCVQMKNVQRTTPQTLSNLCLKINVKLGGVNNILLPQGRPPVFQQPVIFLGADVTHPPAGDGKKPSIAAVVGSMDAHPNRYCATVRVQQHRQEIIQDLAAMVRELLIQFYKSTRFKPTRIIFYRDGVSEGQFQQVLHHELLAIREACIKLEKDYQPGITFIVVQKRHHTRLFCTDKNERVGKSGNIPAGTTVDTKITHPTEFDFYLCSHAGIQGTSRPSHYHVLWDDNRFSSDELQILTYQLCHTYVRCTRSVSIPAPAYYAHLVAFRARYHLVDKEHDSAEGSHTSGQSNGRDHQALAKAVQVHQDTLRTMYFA

B1: NONO (protein, UniProt Q99K48 1-473)
chain: MQSNKAFNLEKQNHTPRKHHQHHHQQHHQQQQQQQQQQPPPPIPANGQQASSQNEGLTIDLKNFRKPGEKTFTQRSRLFVGNLPPDITEEEMRKLFEKYGKAGEVFIHKDKGFGFIRLETRTLAEIAKVELDNMPLRGKQLRVRFACHSASLTVRNLPQYVSNELLEEAFSVFGQVERAVVIVDDRGRPSGKGIVEFSGKPAARKALDRCSEGSFLLTTFPRPVTVEPMDQLDDEEGLPEKLVIKNQQFHKEREQPPRFAQPGSFEYEYAMRWKALIEMEKQQQDQVDRNIKEAREKLEMEMEAARHEHQVMLMRQDLMRRQEELRRMEELHNQEVQKRKQLELRQEEERRRREEEMRRQQEEMMRRQQEGFKGTFPDAREQEIRMGQMAMGGAMGINNRGAMPPAPVPPGTPAPPGPATMMPDGTLGLTPPTTERFGQAATMEGIGAIGGTPPAFNRPAPGAEFAPNKRRRY

target: Wilms Tumour 1 (WT1) protein (mouse (endogenous in M15)) (UniProt P22561); test: affinity purification with mass spectrometry

Row | binding | Molecule
1 | binds | DHX9 (from UniProt O70133 1-1380)
2 | binds | U2AF2 (from UniProt P26369 1-475)
3 | binds | AGO2 (from UniProt Q8CJG0 1-860)
4 | binds | B1

Results are given in words; binding and its absence hold for the method and conditions named. In cells and extracts the contact can be indirect. A yes stands for co-enrichment or nearness to the bait. Other partners may have been found.
